Values of other authors as cited in patent US5846980A, “N-(benzhydryloxyalkyl)-4-(carboxy/carbamoyl methyl)-piperidine derivatives as antidepressants” (Cooperation Pharmaceutique Francaise, priority 1994, dated 1998).

System: noradrenaline re-uptake

SMILES: CN1Cc2c(N)cccc2C(c2ccccc2)C1 (stereo not shown) [1,2,3,4-tetrahydro-2-methyl-4-phenyl-8-isoquinolinamine]
- inhibition of noradrenaline re-uptake: inhibit dopamine and noradrenaline re-uptake
